Measured values reported in PMC10626665.
No constants are given. Whether binding was seen depends on the method and setting. Binding seen in cells or lysates may run through a third protein. Some results given as binding are weak or reduced against the parent protein; the word gives no strength.

Chains of the proteins cited; added tags and fusions are not shown.
UniProt P46940: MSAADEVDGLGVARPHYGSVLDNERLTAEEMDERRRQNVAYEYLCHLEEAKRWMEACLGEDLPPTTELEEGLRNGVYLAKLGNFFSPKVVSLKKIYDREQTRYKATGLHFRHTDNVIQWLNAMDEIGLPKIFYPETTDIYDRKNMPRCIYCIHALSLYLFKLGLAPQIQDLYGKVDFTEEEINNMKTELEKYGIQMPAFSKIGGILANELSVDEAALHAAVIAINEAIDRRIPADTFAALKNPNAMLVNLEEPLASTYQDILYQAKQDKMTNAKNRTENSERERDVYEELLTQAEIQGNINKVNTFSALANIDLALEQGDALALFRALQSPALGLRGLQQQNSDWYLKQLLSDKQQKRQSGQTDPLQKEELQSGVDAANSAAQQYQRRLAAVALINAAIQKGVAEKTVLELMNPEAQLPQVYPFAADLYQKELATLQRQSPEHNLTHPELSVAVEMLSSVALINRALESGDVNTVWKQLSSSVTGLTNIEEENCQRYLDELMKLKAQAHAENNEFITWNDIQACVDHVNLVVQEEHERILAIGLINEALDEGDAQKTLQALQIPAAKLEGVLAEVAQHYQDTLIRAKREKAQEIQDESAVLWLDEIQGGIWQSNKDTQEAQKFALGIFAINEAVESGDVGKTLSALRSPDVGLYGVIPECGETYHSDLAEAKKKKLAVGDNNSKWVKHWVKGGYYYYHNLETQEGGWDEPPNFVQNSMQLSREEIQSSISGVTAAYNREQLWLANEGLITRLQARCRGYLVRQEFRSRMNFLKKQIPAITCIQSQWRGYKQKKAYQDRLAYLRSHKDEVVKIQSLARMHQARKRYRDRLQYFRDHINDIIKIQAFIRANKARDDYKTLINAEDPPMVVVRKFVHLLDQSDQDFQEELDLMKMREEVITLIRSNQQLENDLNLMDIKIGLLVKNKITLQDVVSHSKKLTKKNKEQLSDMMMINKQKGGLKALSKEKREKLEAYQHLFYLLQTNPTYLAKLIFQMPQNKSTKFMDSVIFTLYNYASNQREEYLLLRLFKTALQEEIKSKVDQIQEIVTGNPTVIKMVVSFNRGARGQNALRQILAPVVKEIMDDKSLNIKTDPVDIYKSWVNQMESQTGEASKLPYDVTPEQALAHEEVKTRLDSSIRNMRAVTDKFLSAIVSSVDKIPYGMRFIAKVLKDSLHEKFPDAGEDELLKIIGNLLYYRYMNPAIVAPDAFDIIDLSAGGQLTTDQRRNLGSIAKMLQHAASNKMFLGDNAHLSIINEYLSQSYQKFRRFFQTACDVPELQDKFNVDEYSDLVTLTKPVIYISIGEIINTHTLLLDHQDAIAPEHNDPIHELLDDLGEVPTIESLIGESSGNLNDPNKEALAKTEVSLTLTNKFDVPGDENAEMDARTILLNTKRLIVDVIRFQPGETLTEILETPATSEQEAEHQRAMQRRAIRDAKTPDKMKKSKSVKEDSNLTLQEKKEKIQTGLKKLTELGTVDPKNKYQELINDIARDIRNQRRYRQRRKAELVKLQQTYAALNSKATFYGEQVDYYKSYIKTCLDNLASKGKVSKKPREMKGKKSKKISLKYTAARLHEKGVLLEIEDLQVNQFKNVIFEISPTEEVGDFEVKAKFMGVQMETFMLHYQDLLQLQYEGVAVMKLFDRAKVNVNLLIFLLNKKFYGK

Target: T1, MYL9 (human (endogenous in primary CAFs)) (UniProt P24844)
T1 sequence: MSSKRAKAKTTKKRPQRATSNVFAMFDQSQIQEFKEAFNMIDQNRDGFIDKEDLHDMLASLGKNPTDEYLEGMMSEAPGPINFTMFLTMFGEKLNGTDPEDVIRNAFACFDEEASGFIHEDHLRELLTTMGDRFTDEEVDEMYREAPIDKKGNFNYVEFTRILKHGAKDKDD
Test: co-IP; target antibody and Protein A + G agarose added to the supernatant of a RIPA lysate, overnight at 4 C; which protein was precipitated not given

- binding: binds
Substance: IQGAP1 (from UniProt P46940 1-1657)
